From article PMC11061317 come the findings set out here.

The chains behind the UniProt entries cited, without tags or fusion partners.
UniProt O75592: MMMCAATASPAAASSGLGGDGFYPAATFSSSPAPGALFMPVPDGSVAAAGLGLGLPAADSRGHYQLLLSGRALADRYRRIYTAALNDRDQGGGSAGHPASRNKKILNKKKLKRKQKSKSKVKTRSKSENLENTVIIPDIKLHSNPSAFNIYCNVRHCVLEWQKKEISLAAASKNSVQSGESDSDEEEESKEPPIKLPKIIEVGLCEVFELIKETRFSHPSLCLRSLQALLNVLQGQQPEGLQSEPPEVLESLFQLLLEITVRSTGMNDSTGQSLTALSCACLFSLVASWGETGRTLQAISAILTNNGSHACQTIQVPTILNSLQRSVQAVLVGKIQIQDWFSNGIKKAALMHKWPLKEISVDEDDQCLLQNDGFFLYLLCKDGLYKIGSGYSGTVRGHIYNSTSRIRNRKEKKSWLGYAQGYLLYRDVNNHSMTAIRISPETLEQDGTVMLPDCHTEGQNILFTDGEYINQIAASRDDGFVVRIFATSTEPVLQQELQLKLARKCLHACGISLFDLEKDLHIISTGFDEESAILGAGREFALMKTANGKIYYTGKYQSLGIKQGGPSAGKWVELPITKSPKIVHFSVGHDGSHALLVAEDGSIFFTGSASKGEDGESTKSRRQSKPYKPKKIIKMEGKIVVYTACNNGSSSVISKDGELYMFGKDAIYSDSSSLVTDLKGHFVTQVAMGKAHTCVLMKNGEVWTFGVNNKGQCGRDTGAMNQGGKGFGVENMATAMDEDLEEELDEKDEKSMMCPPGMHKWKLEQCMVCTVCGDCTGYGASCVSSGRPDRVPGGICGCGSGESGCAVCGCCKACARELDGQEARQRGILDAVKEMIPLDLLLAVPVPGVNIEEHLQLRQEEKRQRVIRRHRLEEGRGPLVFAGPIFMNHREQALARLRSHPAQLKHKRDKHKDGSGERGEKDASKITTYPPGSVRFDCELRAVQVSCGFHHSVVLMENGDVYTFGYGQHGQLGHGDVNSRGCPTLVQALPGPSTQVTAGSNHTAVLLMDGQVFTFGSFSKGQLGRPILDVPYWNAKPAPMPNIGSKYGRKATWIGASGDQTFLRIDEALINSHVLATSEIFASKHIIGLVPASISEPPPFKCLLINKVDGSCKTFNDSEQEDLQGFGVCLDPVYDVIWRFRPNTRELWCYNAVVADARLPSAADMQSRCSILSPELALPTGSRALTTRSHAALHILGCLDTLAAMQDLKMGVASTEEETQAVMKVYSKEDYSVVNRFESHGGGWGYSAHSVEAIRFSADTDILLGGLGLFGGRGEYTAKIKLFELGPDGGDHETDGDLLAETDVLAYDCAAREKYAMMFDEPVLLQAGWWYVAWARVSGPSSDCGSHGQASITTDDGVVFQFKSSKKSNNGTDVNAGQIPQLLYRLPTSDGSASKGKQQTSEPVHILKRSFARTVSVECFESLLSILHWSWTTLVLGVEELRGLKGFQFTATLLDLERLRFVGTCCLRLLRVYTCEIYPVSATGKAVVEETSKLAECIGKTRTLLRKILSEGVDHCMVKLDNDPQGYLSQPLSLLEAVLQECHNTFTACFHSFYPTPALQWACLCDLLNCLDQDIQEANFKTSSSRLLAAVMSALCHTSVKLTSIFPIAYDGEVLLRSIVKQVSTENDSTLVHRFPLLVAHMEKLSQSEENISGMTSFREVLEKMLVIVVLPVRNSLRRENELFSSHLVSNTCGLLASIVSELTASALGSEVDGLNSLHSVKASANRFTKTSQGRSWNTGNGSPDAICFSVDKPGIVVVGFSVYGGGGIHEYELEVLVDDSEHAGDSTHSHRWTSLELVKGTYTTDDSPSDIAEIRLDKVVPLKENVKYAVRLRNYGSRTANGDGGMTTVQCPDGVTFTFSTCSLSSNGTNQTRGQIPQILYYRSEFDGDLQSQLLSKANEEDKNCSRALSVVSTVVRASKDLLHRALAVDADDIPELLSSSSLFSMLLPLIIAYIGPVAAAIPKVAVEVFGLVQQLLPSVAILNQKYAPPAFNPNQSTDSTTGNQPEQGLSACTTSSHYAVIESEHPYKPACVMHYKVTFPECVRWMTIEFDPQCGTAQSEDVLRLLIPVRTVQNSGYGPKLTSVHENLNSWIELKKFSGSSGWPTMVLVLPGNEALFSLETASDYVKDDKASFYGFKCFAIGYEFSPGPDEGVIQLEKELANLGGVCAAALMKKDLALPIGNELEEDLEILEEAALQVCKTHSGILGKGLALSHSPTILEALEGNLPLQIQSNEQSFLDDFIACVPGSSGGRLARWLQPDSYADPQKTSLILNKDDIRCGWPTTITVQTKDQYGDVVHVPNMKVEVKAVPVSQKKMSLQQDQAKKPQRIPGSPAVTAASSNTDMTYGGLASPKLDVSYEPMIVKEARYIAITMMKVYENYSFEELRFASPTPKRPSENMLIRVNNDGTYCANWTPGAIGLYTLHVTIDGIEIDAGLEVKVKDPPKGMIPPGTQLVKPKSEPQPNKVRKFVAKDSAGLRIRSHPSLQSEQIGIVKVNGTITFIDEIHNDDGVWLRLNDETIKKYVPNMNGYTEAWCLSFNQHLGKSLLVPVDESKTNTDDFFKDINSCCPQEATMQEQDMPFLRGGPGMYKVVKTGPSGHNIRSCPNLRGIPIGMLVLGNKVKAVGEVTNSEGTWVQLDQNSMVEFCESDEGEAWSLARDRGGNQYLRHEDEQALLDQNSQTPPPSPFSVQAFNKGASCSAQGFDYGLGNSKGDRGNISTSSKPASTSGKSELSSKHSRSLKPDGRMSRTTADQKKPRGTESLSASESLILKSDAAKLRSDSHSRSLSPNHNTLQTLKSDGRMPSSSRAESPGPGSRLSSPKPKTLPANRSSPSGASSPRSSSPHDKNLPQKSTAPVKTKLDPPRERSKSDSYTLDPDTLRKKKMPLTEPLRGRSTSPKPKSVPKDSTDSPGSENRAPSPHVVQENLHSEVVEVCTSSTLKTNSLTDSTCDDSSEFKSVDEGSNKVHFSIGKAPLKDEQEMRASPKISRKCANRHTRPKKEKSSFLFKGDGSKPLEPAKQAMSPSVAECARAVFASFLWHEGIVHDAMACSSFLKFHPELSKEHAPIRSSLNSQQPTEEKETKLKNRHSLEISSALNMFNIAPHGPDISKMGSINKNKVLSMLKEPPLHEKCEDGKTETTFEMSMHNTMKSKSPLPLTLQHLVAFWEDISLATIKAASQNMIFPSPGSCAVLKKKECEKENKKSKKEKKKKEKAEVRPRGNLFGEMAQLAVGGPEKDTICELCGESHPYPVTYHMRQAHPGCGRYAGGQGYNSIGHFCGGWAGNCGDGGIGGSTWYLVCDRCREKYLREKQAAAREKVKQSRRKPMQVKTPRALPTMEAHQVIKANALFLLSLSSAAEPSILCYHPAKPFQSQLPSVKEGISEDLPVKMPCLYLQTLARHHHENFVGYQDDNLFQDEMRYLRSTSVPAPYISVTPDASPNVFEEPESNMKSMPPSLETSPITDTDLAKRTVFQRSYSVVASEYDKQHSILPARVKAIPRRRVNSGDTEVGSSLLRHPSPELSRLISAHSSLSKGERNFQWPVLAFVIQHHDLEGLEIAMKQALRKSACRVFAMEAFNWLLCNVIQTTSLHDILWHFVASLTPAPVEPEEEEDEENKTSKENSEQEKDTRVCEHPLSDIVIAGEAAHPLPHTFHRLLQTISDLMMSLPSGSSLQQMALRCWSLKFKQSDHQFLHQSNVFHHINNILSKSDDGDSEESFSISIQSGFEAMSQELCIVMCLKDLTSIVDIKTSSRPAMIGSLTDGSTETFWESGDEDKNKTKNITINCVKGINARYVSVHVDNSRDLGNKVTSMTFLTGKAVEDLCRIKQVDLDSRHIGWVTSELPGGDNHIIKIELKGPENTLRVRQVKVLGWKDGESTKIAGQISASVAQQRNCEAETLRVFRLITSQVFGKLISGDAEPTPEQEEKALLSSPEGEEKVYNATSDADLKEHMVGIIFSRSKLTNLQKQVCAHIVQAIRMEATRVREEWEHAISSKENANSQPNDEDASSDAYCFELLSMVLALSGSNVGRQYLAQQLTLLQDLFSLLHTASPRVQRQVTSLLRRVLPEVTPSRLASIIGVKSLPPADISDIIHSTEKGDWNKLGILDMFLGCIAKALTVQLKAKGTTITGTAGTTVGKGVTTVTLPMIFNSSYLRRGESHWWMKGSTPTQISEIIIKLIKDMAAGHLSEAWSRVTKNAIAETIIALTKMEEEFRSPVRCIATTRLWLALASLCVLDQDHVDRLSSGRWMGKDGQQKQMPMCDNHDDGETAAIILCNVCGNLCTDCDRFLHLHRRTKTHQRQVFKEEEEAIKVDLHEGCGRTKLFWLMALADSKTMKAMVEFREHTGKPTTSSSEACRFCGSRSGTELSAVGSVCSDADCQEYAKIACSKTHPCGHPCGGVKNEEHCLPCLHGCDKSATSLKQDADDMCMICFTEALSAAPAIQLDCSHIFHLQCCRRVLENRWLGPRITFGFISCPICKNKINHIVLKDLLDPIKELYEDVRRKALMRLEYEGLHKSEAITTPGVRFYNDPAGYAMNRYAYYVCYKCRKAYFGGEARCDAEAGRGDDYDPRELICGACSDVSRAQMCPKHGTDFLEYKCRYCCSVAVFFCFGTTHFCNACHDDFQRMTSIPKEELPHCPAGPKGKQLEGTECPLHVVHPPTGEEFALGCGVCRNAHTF

These are yes or no findings as the source states them, for the method shown. Binding seen in cells or lysates may run through a third protein. A yes stands for co-enrichment or nearness to the bait. Other partners may have been found. No binding means not detected with the bait.

This assay has as its target PhastID-tagged Rheb (UniProt Q15382). Kind of assay: proximity labelling; PhastID-Rheb stably expressed in HeLa 229 cells; serum starved 16 h, then 0.9 uM insulin plus 50 uM biotin for 15 min or 1 h; RIPA whole cell lysate, streptavidin magnetic bead pull-down, LC-MS/MS, triplicates; PhastID alone and biotin alone as controls.

With “ATP6AP1 (endogenous, HeLa 229) (from UniProt Q15904 42-470)”, the binding result is on record as “binds”.
PAM (from UniProt O75592 1-4678): the binding entry was “no binding”.
For RAB7A (from UniProt P51149 1-207) the value was “binds”.
